Results as given in PMC10776498.
Positions count from the first letter of the chain named. Numbers in names are those of the source. Results are given in words; binding and its absence hold for the method and conditions named. In cells and extracts the contact can be indirect. Some results given as binding are weak or reduced against the parent protein; the word gives no strength. For part of these data: Sequences can lack the tags named with a protein.

T1: Caspase-4 (human (endogenous in HUVECs)) (UniProt P49662)
T1 sequence: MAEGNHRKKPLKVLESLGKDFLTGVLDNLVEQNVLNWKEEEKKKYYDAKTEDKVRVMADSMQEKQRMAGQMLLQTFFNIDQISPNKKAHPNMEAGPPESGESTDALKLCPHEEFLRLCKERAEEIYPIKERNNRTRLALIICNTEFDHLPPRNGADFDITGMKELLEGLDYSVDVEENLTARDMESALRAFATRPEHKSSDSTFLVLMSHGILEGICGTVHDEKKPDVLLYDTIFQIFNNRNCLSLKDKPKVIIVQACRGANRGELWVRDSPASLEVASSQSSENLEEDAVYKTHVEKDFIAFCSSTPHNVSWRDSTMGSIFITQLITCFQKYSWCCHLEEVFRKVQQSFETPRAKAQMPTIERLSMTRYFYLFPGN

T2: Caspase-4 (human (endogenous in HEK293T)) (UniProt P49662)
T2 sequence: T1 sequence

B1: Gasdermin-D (protein, UniProt P57764 1-484)
chain: MGSAFERVVRRVVQELDHGGEFIPVTSLQSSTGFQPYCLVVRKPSSSWFWKPRYKCVNLSIKDILEPDAAEPDVQRGRSFHFYDAMDGQIQGSVELAAPGQAKIAGGAAVSDSSSTSMNVYSLSVDPNTWQTLLHERHLRQPEHKVLQQLRSRGDNVYVVTEVLQTQKEVEVTRTHKREGSGRFSLPGATCLQGEGQGHLSQKKTVTIPSGSTLAFRVAQLVIDSDLDVLLFPDKKQRTFQPPATGHKRSTSEGAWPQLPSGLSMMRCLHNFLTDGVPAEGAFTEDFQGLRAEVETISKELELLDRELCQLLLEGLEGVLRDQLALRALEEALEQGQSLGPVEPLDGPAGAVLECLVLSSGMLVPELAIPVVYLLGALTMLSETQHKLLAEALESQTLLGPLELVGSLLEQSAPWQERSTMSLPPGLLGNSWGEGAPAWVLLDECGLELGEDTPHVCWEPQAQGRMCALYASLALLSGLSQEPH
B2: FLAG-tagged GSDMD (protein, UniProt P57764 1-484)
chain: B1 chain
B3: FLAG-tagged human GSDMD (S338A) (protein, UniProt P57764 1-484)
chain: B1 chain with S338A

Experiments:
[1] = target: T1, Caspase-4 (human (endogenous in HUVECs)); experiment: co-IP; HUVEC lysates, cells untreated or stimulated with LPS, with or without TMG pretreatment; IP with anti-caspase-4 antibody and Protein A/G agarose overnight at 4 °C; blot with anti-GSDMD
[2] = target: T2, Caspase-4 (human (endogenous in HEK293T)); experiment: co-IP; 293T cells overexpressing GSDMD or GSDMD S338A, untreated or stimulated with LPS, with or without TMG; IP with anti-Caspase-4 antibody; blot with anti-GSDMD

Binder	binding [1]	binding [2]
B1	binds	–
B2	–	binds
B3	–	binds
